PubChem BioAssay AID1259308, NCATS – 2017
Screen: 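Genes whose loss raises luciferase production in HEK293 cells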 (primary screen). System: human HEK293 embryonic kidney cells stably expressing firefly luciferase (HEK-CMV-Luc2-Hygro). Knock-down reagent: single siRNA against human genes, 0.8 pmol siRNA per well. Time to read-out: 72 h. Measured: 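Luciferase light (ONE-Glo) measured on one replicate plate set and viability (CellTiter-Glo) on the other, scaled to a negative control siRNA, with robust z-scores and luciferase per cell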. Reading the numbers: total luciferase, z-score: higher = more reporter protein produced. Active means: 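An siRNA counts as active if its total luciferase robust z-score exceeds 3; genes with two or more such siRNAs out of three were retested with fresh siRNAs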. Calls: active = raised luciferase; inactive = no rise.
This is one part, drawn at random, of about 59,000 deposited reagents. In the full data, about 1,510 (2.6%) got an active call. 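Calls use total luciferase alone and ignore viability, so some active siRNAs may act by altering cell number.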 A number with no mark means an inactive call. Reagents against one gene are numbered here. Not all columns of the deposit are shown.

total luciferase, z-score, by target gene and reagent
OR4A16 (olfactory receptor family 4 subfamily A member 16): #1 -1.51; #2 -1.11; #3 1.13
CARD18 (caspase recruitment domain family member 18): #1 -1.09; #2 -0.793; #3 2.25
WASF3 (WASP family member 3): #1 0.907; #2 0.995; #3 0.882
DAXX (death domain associated protein): #1 -0.0965; #2 -0.38; #3 -0.785
MAK16 (MAK16 homolog): #1 -2.54; #2 -2.2; #3 -2.14
SALL3 (spalt like transcription factor 3): #1 -0.0145; #2 -1.01; #3 -1.15
RGPD3 (RANBP2 like and GRIP domain containing 3): #1 1.93; #2 0.0919; #3 -0.593
ZNF217 (zinc finger protein 217): #1 0.287; #2 0.65; #3 0.66
OTOP2 (otopetrin 2): #1 2.36; #2 1.3; #3 0.446
MUC21 (mucin 21, cell surface associated): #1 -0.813; #2 -0.176; #3 0.302
ZNF189 (zinc finger protein 189): #1 -0.602; #2 -1.03; #3 0.0512
HDGFL1 (HDGF like 1): #1 -0.0894; #2 -0.776; #3 -0.0716
LACRT (lacritin): #1 0.328; #2 -2.34; #3 2.49
HERC1: #1 -0.11; #2 -0.342; #3 -0.767
RPS6KA1 (ribosomal protein S6 kinase A1): #1 -1.24; #2 -0.371; #3 -1.91
LY6S-AS1 (LY6S antisense RNA 1): #1 0.206; #2 0.914; #3 -0.329
OR1E1 (olfactory receptor family 1 subfamily E member 1): #1 2.16; #2 3.26 (active); #3 -2.88
ASRGL1 (asparaginase and isoaspartyl peptidase 1): #1 2.48; #2 -0.28; #3 1.45
TOR1A (torsin family 1 member A): #1 0.619; #2 0.746; #3 0.391

Copied from the listing for reference:
total luciferase, z-score, by target gene and reagent
OR1E1 (olfactory receptor family 1 subfamily E member 1): #2 3.26 (active); #3 -2.88
ASRGL1 (asparaginase and isoaspartyl peptidase 1): #1 2.48; #2 -0.28; #3 1.45
TOR1A (torsin family 1 member A): #1 0.619; #2 0.746; #3 0.391
